# From PubChem BioAssay AID1487 (National Center for Advancing Translational Sciences (NCATS), 2009)
# The list shows a part of the results. Shown are side measurements of this screen, not its main read-out; they come without a call. Compounds called inactive in the main read-out are mostly missing here. The note in brackets gives the kind of curve behind each potency; many fits are weak.
# Assay: qHTS Assay for Modulators of Lamin A Splicing
# Conditions: HeLa LMNA splicing GFP/RFP minigene ratio, 48 h
# How it was run: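 Read-out is the ratio of GFP to DsRed2 object intensity, acquired by 488 nm laser-scanning cytometry on HeLa lamin A-EGFP minigene reporter cells. Compound incubation 48 hrs at 37 °C in Opti-MEM with 2% FBS; DMSO 0.5% final.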
# [1] = measured here: GFP splicing reporter channel
# [2] = measured here: RFP viability control channel
SMILES,AC50 [1],AC50 [2]
O=C(OCc1nnc(-c2ccccc2)o1)c1cn(-c2ccccc2)nc1-c1ccccc1,"12.6 µM [rising, single point]","31.6 µM [rising, single point]"
CCn1c(SCC(=O)NCc2ccco2)nnc1C(C)C,–,"35.5 µM [falling, single point]"
Cc1ccc2nc(N3CCN(C(=O)c4cccs4)CC3)c(C#N)cc2c1,–,"22.4 µM [rising, single point]"
O=C(Nc1ccccc1)N1CCCN(c2c(Cl)cncc2Cl)CC1,"3.55 µM [rising, single point]",–
Clc1ccc(CSc2ccc(-c3ccccn3)nn2)cc1,"35.5 µM [rising, single point]","35.5 µM [rising, single point]"
O=c1oc2ccccc2n1CSc1nc2ccccc2s1,"11.2 µM [rising, partial curve, poor fit]","15.8 µM [rising, single point]"
CCCC(=O)Nc1ccccc1NC(=O)c1ccc(OC(C)=O)cc1,"31.6 µM [falling, partial curve, poor fit]",–
CNC(=S)N/N=C/c1ccc(N2CCOCC2)s1,"0.282 µM [falling, full curve, poor fit]","0.355 µM [falling, full curve, poor fit]"
CCCCc1ccc(Nc2cc(C)nc(-n3nc(C)cc3C)n2)cc1,–,"10 µM [falling, partial curve]"
Cc1cc(C)n(CCN(C)Cc2nc(Cc3ccccc3F)no2)n1,–,"0.00447 µM [falling, full curve, poor fit]"
O=C(CSc1nnc(CNC(=O)c2ccccc2F)o1)c1ccc(Cl)cc1,–,"31.6 µM [rising, single point]"
CSc1nnc2c(n1)c(C)nn2-c1cccc(C)c1,–,"6.31 µM [rising, single point]"
O=C(NCC(c1cccnc1)N1CCc2ccccc2C1)C(=O)Nc1ccccc1F (stereo not given),"6.31 µM [rising, partial curve, poor fit]","12.6 µM [rising, partial curve, poor fit]"
CSc1ccc(CNC(=O)Cn2c(-c3cccs3)cc3cc(F)ccc32)cc1,–,"2 µM [rising, partial curve]"
O=C(/C=C\c1ccc2c(c1)OCO2)NC1CC(=O)N(c2ccccc2)C1 (stereo not given),"0.00891 µM [rising, full curve, poor fit]",–
CC(=O)O[C@]1(C(C)=O)CC[C@H]2[C@@H]3C=C(Cl)C4=CC(=O)[C@@H]5C[C@@H]5[C@]4(C)[C@H]3CC[C@@]21C,–,"20 µM [rising, single point]"
O=C(/C=C/c1ccc(Cl)cc1Cl)NCc1ccncc1,"4.47 µM [rising, partial curve]","11.2 µM [rising, partial curve]"
COc1ccc(CN(C)CC(=O)Nc2cc3oc4ccccc4c3cc2OC)c(OC)c1,"17.8 µM [rising, partial curve, poor fit]","22.4 µM [rising, partial curve]"

# Three entries out of the list, sorted by length of the SMILES, high to low:
SMILES,AC50 [1],AC50 [2]
COc1ccc(CN(C)CC(=O)Nc2cc3oc4ccccc4c3cc2OC)c(OC)c1,"17.8 µM [rising, partial curve, poor fit]","22.4 µM [rising, partial curve]"
O=C(CSc1nnc(CNC(=O)c2ccccc2F)o1)c1ccc(Cl)cc1,–,"31.6 µM [rising, single point]"
CCCC(=O)Nc1ccccc1NC(=O)c1ccc(OC(C)=O)cc1,"31.6 µM [falling, partial curve, poor fit]",–

# Continuation.

SMILES,AC50 [1],AC50 [2]
NC(=O)COC(=O)c1ccc(S(=O)(=O)NCc2ccco2)cc1,–,"0.562 µM [rising, partial curve, poor fit]"
COc1ccc(NC(=O)c2nn(C)c(=O)c3ccccc23)cc1S(=O)(=O)Nc1ccccc1Cl,–,"0.0891 µM [rising, single point]"
COc1ccc(CC(=O)Nc2ncc([N+](=O)[O-])s2)cc1OC,"3.16 µM [falling, full curve]","1.26 µM [falling, full curve]"
COc1ccc(NC(=O)COc2nsnc2N2CCCCC2)cc1,"11.2 µM [rising, partial curve, poor fit]","14.1 µM [rising, partial curve]"
Cn1c(SCc2ccc(C#N)cc2)nnc1-c1cccc(Cl)c1,"0.00447 µM [rising, full curve, poor fit]",–
CCc1ccc(C2=NN(S(C)(=O)=O)C(c3cccs3)C2)cc1 (stereo not given),–,"31.6 µM [rising, single point]"
CCc1cccc2c(C#N)cn(CC(=O)NCCOC)c12,"0.0355 µM [falling, full curve, poor fit]",–
c1ccc(C2=Nc3ccccc3SC2c2nc3ccccc3[nH]2)cc1 (stereo not given),"17.8 µM [rising, partial curve, poor fit]","14.1 µM [rising, partial curve]"
NC(=O)c1ccc(Oc2ccc(Cl)c3ccccc23)c([N+](=O)[O-])c1,"4.47 µM [rising, partial curve]","14.1 µM [rising, single point]"
O=C(CSc1nnc(-c2cccs2)o1)N1CCCc2ccccc21,"11.2 µM [rising, partial curve]","10 µM [rising, single point]"
O=C1N(c2ccccc2)C[C@@H]2C[C@@H](c3cccs3)N3CCC[C@@]123,"15.8 µM [falling, partial curve, poor fit]","11.2 µM [falling, partial curve]"
Cc1ccc(NC(=O)C2CCCN(c3ncnc4onc(C)c34)C2)c(Cl)c1 (stereo not given),"0.00562 µM [falling, full curve]",–
COc1ccc(-c2csc(Nc3cccnc3)n2)cc1,"10 µM [rising, partial curve, poor fit]","31.6 µM [rising, single point]"
O=C(O)C1CCCN(CCC=C(c2ccccc2)c2ccccc2)C1 (stereo not given),–,"0.0794 µM [falling, full curve, poor fit]"
CCSc1nc(N)c(C#N)c(-c2ccco2)c1C#N,–,"15.8 µM [rising, partial curve, poor fit]"
Cc1cc2cc(CNC(=O)c3ccc(C)c([N+](=O)[O-])c3)ccc2[nH]1,–,"17.8 µM [rising, single point]"
Cc1ccccc1Nc1nc(N)nc(CN2CCN(Cc3ccc4c(c3)OCO4)CC2)n1,"2.82 µM [falling, partial curve, poor fit]","3.16 µM [falling, partial curve, poor fit]"
